Measured values published in the supplement of paper PMC12823440, “Inhibitors supercharge kinase turnover through native proteolytic circuits” (Nature, 2025).
Where a name gives a salt, the structure may show the parent alone. The list shows a part of the results. The calls rarely recur for the same compound in another form.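 Kinases were expressed as nanoluciferase fusions in K562 cells and luminescence was read every 4 h between 2 and 18 h as percent of control, DMSO set to 100% and a positive control to 0%. A time point counts as decreased when the signal drops significantly (2 sigma). The hit call is the authors' own, does not follow from the count of time points alone, and its rule is not shown.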

Sequences of proteins named here, by UniProt entry; tags and fusion partners are left off.
UniProt Q05397, whole entry, looked up: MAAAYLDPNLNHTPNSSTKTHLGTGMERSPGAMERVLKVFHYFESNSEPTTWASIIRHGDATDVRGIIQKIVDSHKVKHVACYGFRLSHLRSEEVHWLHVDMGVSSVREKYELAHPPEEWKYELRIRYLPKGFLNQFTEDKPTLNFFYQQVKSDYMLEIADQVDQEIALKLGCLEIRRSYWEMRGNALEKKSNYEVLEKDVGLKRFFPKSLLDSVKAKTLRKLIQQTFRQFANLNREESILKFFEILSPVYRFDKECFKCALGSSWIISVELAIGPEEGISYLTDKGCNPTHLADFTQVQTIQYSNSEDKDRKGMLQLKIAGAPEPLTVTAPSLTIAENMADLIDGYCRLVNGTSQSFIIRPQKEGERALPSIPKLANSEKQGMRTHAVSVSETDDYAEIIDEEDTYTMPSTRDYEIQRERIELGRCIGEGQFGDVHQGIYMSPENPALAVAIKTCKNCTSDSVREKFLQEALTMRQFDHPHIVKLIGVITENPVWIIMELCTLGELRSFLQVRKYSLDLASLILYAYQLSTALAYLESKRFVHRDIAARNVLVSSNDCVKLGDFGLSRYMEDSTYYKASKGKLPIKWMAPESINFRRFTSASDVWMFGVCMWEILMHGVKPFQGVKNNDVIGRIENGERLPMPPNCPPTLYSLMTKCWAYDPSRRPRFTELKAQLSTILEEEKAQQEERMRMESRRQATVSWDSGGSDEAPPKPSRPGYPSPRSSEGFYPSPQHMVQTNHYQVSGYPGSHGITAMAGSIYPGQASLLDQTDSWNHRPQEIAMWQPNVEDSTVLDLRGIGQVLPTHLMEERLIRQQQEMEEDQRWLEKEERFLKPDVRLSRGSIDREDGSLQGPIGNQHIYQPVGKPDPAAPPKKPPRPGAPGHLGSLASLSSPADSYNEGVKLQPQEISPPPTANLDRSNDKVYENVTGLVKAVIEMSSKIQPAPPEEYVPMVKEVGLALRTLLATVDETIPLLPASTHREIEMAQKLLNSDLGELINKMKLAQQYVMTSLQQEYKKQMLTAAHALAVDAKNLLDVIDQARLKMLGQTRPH

The compounds below were run against PRKCA (UniProt P17252) (assay: kinase-Nluc reporter destabilization hit call (1 = scored as downregulated) (binary); higher = compound decreases kinase abundance). Details: K562; 2-18 h.

kinase-Nluc reporter destabilization hit call, inactive:
CC#CC(=O)N1CC[C@@H](n2c(=O)n(-c3ccc(Oc4ccccc4)cc3)c3c(N)ncnc32)C1 [Tirabrutinib] (10 µM) 0
C[C@@]1(c2ncncc2F)NC(=O)c2cc(-c3cn[nH]c3)ccc21 (10 µM) 0
COc1ccc(Cl)c(Nc2nc3ccccc3nc2NS(=O)(=O)c2cccc(NC(=O)C(C)(C)N)c2)c1 [Pilaralisib] (10 µM) 0
O=Nc1c(-c2c(O)[nH]c3ccc(I)cc23)[nH]c2ccccc12 [5-Iodo-indirubin-3'-monoxime] (10 µM) 0
COc1cc2nccc(Oc3ccc(NC(=O)NC4CC4)c(Cl)c3)c2cc1C(N)=O [Lenvatinib] (10 µM) 0
C[C@]1(O)CCN(c2nc(N3C[C@H](O)[C@@H](O)C3)cc(C(F)(F)F)c2C#N)C1 (10 µM) 0
Cn1cnc(Cn2ccc3ccc(CNCc4[nH]c5ccccc5c4[C@H]4NC(=O)c5ccc(O)cc54)cc32)c1 (10 µM) 0

What follows are compounds tested against PTK2 (UniProt Q05397) in the same assay as above. Details: K562; 2-18 h.

kinase-Nluc reporter destabilization hit call, inactive:
O=C(CSC1=NCCN1)NC1CCCCCC1 [ICCB-19 (hydrochloride)] (2.5 µM) 0
CCCS(=O)(=O)Nc1ccc(F)c(C(=O)c2c[nH]c3ncc(-c4ccc(Cl)cc4)cc23)c1F [Vemurafenib] (10 µM) 0
Cc1ccc(OCCSc2ncccn2)c(Br)c1 [ZLN024 (hydrochloride)] (10 µM) 0
Nc1ncnc2c1c(-c1ccc(Oc3ccccc3)cc1)nn2C1CCCC1 (2.5 µM) 0
COc1ncc(Cl)cc1S(=O)(=O)Nc1ccc(F)c(C#Cc2cnc(N)nc2)c1F (2.5 µM) 0
Cc1ccc(CNc2ncnc3ccc(-c4ccc(CO)o4)cc23)o1 (10 µM) 0
NC(=O)c1nnc(N[C@@H]2CCCC[C@@H]2N)nc1Nc1cccc2cc[nH]c12 (10 µM) 0
CNc1nc(Nc2ccc(C(=O)N3CCOCC3)cc2OC)nc2[nH]cc(Cl)c12 (2.5 µM) 0
CCNc1nc(Nc2cc(F)c(C(=O)N3CCOCC3)cc2OC)ncc1C(F)(F)F [GNE-7915 (tosylate)] (10 µM) 0
CCN1CCN(Cc2ccc(Nc3ncc(F)c(-c4cc(F)c5nc(C)n(C(C)C)c5c4)n3)nc2)CC1 [Abemaciclib] (2 µM) 0
COCCNc1nc2ccc(C#CC3(O)CCCCC3)cc2n1-c1ccnc(N)n1 (10 µM) 0
OCCn1cc(-c2ccc3c(c2)CC/C3=N\O)c(-c2ccncc2)n1 (10 µM) 0
O=C1N[C@@H](Cc2c[nH]c3ccccc23)C(=O)N2CCC[C@@H]12 [Brevianamide F] (10 µM) 0
Cn1nccc1Nc1nccc(-c2ccn([C@H](CO)c3ccc(Cl)c(F)c3)c(=O)c2)n1 [Ravoxertinib] (10 µM) 0
O=C(NCCN1CCOCC1)c1cc2c(Oc3ccc(NC(=O)C4(C(=O)Nc5ccc(F)cc5)CC4)cc3)ccnc2[nH]1 [Tyrosine kinase inhibitor] (10 µM) 0
COc1cc2c(N3CCN(C(=O)Nc4ccc(OC(C)C)cc4)CC3)ncnc2cc1OCCCN1CCCCC1 [Tandutinib (hydrochloride)] (10 µM) 0
COc1cc(/C=C/C(=O)NCC(O)c2ccc(O)cc2)ccc1O (stereo not given) [N-Feruloyloctopamine] (2.5 µM) 0
COc1cc2nccc(Oc3ccc(NC(=O)NC4CC4)c(Cl)c3)c2cc1C(N)=O [Lenvatinib (mesylate)] (10 µM) 0
CN1CCN(c2cccc(Nc3nc4c(-c5ccc(S(C)(=O)=O)cc5)cccn4n3)c2)CC1 (10 µM) 0
C=C(CC[C@@H](C(=O)O)[C@H]1[C@H](O)C[C@@]2(C)C3=C(CC[C@]12C)[C@@]1(C)CC[C@H](OC(C)=O)C(C)(C)[C@@H]1CC3)C(C)C [Pachymic acid] (10 µM) 0
O=c1[nH]c(=O)n([C@@H]2O[C@H](CO)[C@@H](O)[C@@H]2O)cc1/C=C/Br [Sorivudine] (10 µM) 0
NC(=O)c1ccc(-c2nc(-c3ccc4c(c3)OCCO4)c(-c3ccccn3)[nH]2)cc1 (10 µM) 0
CC#CC(=O)Nc1ccc2ncnc(Nc3cccc(Br)c3)c2c1 (10 µM) 0
CCc1c(C(=O)NNC(=O)C(O)c2cc(F)cc(F)c2)ccc(O)c1C (stereo not given) (10 µM) 0
CC(=O)c1c(C)cc2cccc(O)c2c1O [Nepodin] (10 µM) 0
Cc1c(-c2c(F)cc(C(N)=O)c3[nH]c4c(c23)CC[C@H](C(C)(C)O)C4)cccc1-n1c(=O)c2cccc(F)c2n(C)c1=O (2.5 µM) 0
CCc1cc2c(cc1N1CCC(N3CCOCC3)CC1)C(C)(C)c1[nH]c3cc(C#N)ccc3c1C2=O [Alectinib] (10 µM) 0
FC(F)c1nc2ccccc2n1-c1nc(N2CCOCC2)nc(N2CCOCC2)n1 (2 µM) 0
FC(F)(c1ccc2ncccc2c1)c1nnc2ccc(-c3ccncc3)nn12 (10 µM) 0
Cn1cc(-c2cnn3c(N)c(Br)c([C@@H]4CCCNC4)nc23)cn1 (2.5 µM) 0
C[C@@H]1COCCN1c1cc(C2([S@@](C)(=N)=O)CC2)nc(-c2ccnc3[nH]ccc23)n1 [(S)-Ceralasertib] (10 µM) 0
CC#CC(=O)N1CC[C@@H](n2c(=O)n(-c3ccc(Oc4ccccc4)cc3)c3c(N)ncnc32)C1 [Tirabrutinib] (10 µM) 0
C[C@@]1(c2ncncc2F)NC(=O)c2cc(-c3cn[nH]c3)ccc21 (10 µM) 0
COc1ccc(Cl)c(Nc2nc3ccccc3nc2NS(=O)(=O)c2cccc(NC(=O)C(C)(C)N)c2)c1 [Pilaralisib] (10 µM) 0
O=Nc1c(-c2c(O)[nH]c3ccc(I)cc23)[nH]c2ccccc12 [5-Iodo-indirubin-3'-monoxime] (10 µM) 0
COc1cc2nccc(Oc3ccc(NC(=O)NC4CC4)c(Cl)c3)c2cc1C(N)=O [Lenvatinib] (10 µM) 0
C[C@]1(O)CCN(c2nc(N3C[C@H](O)[C@@H](O)C3)cc(C(F)(F)F)c2C#N)C1 (10 µM) 0
Cn1cnc(Cn2ccc3ccc(CNCc4[nH]c5ccccc5c4[C@H]4NC(=O)c5ccc(O)cc54)cc32)c1 (10 µM) 0
